In PMC9135303, “Interaction of fungal lipase with potential phytotherapeutics” (PLoS ONE, 2022):

Columns and labels:
[1] = tested on: Aspergillus niger lipase; test: Fluorescence quenching of lipase (Stern-Volmer and double-logarithmic plots); format: binding; conditions: pH 7.4
Experimental: Lipase and HSA were dialyzed against KCl- buffer (pH 7) for 24 hrs. Stock solution of lipase was prepared in 10 mM phosphate buffer at pH 7.4 to obtain a particular concentration. […] These samples were incubated at 298.0 K for about 24 hrs.
Fluorescence spectra were recorded on Hitachi F-4010 spectrofluorometer equipped with circulating water bath to maintain the temperature of the cell. The quartz cell of path length 1.0 cm and band slit of 5.0 nm were used for all experiments. The excitation wavelength was 280 nm for lipase and HSA. Emission spectra were recorded from 300–450 nm for lipase and HSA protein.
Herein, the fluorescence intensities were corrected for absorption of the exciting light and reabsorption of the emitted light to decrease the inner filter effect according to the following equation [10] (Chi & Liu, 2011): Fcorr=Fobs10^Aex+Aem/2, Where Fcorr and Fobs are corrected and experimentally measured fluorescence intensities, respectively. […] The fluorescence intensity utilized in this paper was the corrected intensity.
Emission fluorescence spectra were measured in the 300–450 nm interval, at a fixed excitation wavelength of 280 nm. Occurrence of an emission maximum at 344 nm in the fluorescence spectrum of lipase can be attributed to the presence of tryptophan residue of lipase. […]

[2] = tested on: Aspergillus niger lipase; test: Far-UV circular dichroism of lipase; conditions: 24 hours at 298.15 K, pH 7.4, native -9.34

Cc1ccc(C(C)C)cc1O [carvacrol] was tested, and the “n (stoichiometry of association process / number of binding sites)” value [1] was 2.04 and the “MRE x 10^3 at 222nm (complex_400 μM)” value [2] was -7.71.
